PubChem BioAssay AID686937 | Drosophila RNAi Screening Center | 2013

- Purpose: 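Knock-downs that reduce output of a secreted reporter enzyme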 (primary screen)
- Cells: Drosophila S2 cells expressing secreted horseradish peroxidase
- Reagent: long dsRNA against Drosophila genes
- Duration: about 5.5 days (5 days dsRNA, then 12 h reporter induction)
- Treatment: reporter expression induced after 5 days of dsRNA, read 12 h later; inducer not stated
- Read-out: 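After 5 days of dsRNA and 12 h of reporter induction, medium peroxidase read by chemiluminescence and scored as per-plate z-score; higher values mean more reporter released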
- Reading the numbers: z-score: higher = more reporter secreted into medium
The screen tested about 23,000 reagents; this is an unselected part of those that have a named target and a result. 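Reduced-secretion tags in replicate 1 do not always agree with the z-scores; no criterion for assigning the tags was given.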 Not all columns of the deposit are shown. Not given: the amount of reagent.

Against CG30187 (GeneID 246509) [DRSC22461] the deposit lists z-score, replicate 1 = -0.42. With knock-down of bsd (GeneID 36302) [DRSC05953], the screen gave z-score, replicate 1 = -0.4. Against Hsp67Bc (GeneID 39071) [DRSC11193], the entry reads z-score, replicate 1 = 0.22. Knock-down of Nuak (GeneID 41256) [DRSC14414] gave: z-score, replicate 1 = 0.53. Depletion of Nuak (GeneID 41256) [DRSC14415] resulted in: z-score, replicate 1 = 0.53. Nuak (GeneID 41256) [DRSC14416] scored z-score, replicate 1 = 0.62.

Depletion of Sdr (GeneID 41809) [DRSC15517] gave: z-score, replicate 1 = 0.52. Silencing of S-Lap2 (GeneID 326209) [DRSC10628] resulted in: z-score, replicate 1 = 0.34. Knock-down of inaF-A (GeneID 5740676) [DRSC19660] gave: z-score, replicate 1 = 0.11. Silencing of Tsp42Ep (GeneID 35626) [DRSC06871] gave: z-score, replicate 1 = 0.23. Cpr66Cb (GeneID 38940) [DRSC10769] scored z-score, replicate 1 = -0.23. Against CG42355 (GeneID 317969) [DRSC07967], the values are z-score, replicate 1 = -1.78; phenotype, replicate 1 = reduced secretion.

Es2 (GeneID 31780) [DRSC18663] gave z-score, replicate 1 = 0.36. After knock-down of CG4701 (GeneID 34858) [DRSC01952], the screen gave z-score, replicate 1 = -0.85. Against ApepP (GeneID 35029) [DRSC01866] the deposit lists z-score, replicate 1 = -0.17. Knock-down of CG15406 (GeneID 33542) [DRSC00420] resulted in: z-score, replicate 1 = 0.22. Against CG43091 (GeneID 12798514) [DRSC13571] the deposit lists z-score, replicate 1 = 0.42. Against rha (GeneID 43071) [DRSC17044], the values are z-score, replicate 1 = 0.29.

Knock-down of Pgant7 (GeneID 32836) [DRSC19991] resulted in: z-score, replicate 1 = 0.08. Knock-down of CG31954 (GeneID 33572) [DRSC00580] gave: z-score, replicate 1 = 0.26. Against LManII (GeneID 34437) [DRSC01986] the deposit lists z-score, replicate 1 = 0.21. Tsp42Ea (GeneID 59178) [DRSC04982] gave z-score, replicate 1 = 0.35. Depletion of Tsp42Ea (GeneID 59178) [DRSC06792] came out at: z-score, replicate 1 = 0.35. For EMC10 (GeneID 40396) [DRSC11850] the deposit lists z-score, replicate 1 = 0.42.

For Cdc50 (GeneID 32615) [DRSC20224], the entry reads z-score, replicate 1 = 0.45. Depletion of trn (GeneID 39491) [DRSC11407] came out at: z-score, replicate 1 = 0.42. CG31373 (GeneID 318700) [DRSC16052] scored z-score, replicate 1 = 0.3.

Just “z-score, replicate 1”, for 2 of the entries above:
bsd (GeneID 36302) [DRSC05953]: -0.4
Hsp67Bc (GeneID 39071) [DRSC11193]: 0.22
